The test deals with BirA*-SCRIB (UniProt Q14160). Put plainly: proximity labelling; BioID: BirA*-SCRIB in MCF-7 cells, 50 uM biotin for 24 h, RIPA lysate, streptavidin beads, mass spectrometry.

Amino acid sequences for entries named in this document (tags omitted).
UniProt Q14160: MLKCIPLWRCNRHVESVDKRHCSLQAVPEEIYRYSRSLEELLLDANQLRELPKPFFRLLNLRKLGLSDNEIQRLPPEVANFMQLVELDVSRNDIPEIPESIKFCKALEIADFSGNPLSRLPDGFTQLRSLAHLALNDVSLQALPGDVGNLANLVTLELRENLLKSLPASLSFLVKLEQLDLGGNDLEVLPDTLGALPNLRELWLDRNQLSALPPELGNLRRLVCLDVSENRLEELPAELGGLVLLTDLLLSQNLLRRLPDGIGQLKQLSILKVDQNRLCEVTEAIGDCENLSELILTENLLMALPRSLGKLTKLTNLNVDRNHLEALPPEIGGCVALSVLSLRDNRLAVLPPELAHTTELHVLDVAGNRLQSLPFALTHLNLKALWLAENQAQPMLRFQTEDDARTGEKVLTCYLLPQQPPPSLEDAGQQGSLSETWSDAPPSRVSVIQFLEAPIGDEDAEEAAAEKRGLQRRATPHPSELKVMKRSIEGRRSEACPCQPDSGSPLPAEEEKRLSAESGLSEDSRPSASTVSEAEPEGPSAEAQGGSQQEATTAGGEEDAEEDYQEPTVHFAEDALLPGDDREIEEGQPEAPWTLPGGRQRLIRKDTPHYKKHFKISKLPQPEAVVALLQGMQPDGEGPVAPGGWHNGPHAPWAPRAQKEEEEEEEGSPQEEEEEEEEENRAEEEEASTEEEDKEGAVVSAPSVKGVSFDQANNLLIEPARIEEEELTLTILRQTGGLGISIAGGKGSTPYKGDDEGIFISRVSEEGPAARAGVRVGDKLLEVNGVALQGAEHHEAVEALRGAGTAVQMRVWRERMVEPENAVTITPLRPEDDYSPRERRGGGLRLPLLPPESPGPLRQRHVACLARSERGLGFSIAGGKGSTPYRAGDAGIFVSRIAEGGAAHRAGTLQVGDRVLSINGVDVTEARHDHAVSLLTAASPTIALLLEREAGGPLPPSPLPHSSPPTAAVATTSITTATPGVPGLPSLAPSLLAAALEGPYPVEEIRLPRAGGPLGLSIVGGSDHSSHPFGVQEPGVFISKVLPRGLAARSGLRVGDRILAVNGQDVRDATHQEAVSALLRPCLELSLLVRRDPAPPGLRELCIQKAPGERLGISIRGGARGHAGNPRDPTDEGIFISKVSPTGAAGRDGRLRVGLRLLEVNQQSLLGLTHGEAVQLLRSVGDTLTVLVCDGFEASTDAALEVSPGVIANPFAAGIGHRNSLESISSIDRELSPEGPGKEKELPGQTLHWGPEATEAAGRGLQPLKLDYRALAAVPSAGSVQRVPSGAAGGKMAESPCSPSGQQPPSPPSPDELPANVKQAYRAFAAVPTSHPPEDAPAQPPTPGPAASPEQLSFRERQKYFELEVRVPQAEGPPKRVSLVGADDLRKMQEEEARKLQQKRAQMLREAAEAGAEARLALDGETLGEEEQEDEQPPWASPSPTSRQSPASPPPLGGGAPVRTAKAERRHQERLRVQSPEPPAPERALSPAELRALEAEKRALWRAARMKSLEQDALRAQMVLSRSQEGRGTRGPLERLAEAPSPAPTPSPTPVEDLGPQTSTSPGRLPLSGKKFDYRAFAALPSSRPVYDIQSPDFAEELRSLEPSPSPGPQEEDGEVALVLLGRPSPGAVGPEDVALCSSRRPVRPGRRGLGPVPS

The values that follow come from publication PMC9061724.

These are yes or no findings as the source states them, for the method shown. Binding seen in cells or lysates may run through a third protein. These calls come from enrichment with a bait or labelling near it, and not all partners need be listed.

Consider SLC3A2 (from UniProt P08195 1-529), for which the binding result is reported as “binds”.
